We go through one molecule from PubChem BioAssay AID1117326 (Cheminformatics & Chemogenomics Research Group (CCRG), …, 2015).

This is one part of the list.

This test is described as follows: stimulators of nuclear beta-catenin in C2C12, primary screen, imaging, WNT3A-conditioned medium, mouse C2C12, NPC library (AID 1117326). Note: reference of the scale not given here. Conditions: at 2 µM, stronger effect = higher value.
Consider `CN(CCCl)CCCl`, for which the nuclear beta-catenin stimulation amounted to 12.4%.
